Values from PubChem BioAssay AID743121 (NCATS, 2013)
The deposit covers about 26,000 reagents; shown is a random part of them. In the full data, 167 (0.63%) are marked active. 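Calls are per gene from RSA p-values that are not deposited; an individual active-marked siRNA can sensitise only weakly.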 Further read-outs or replicates are left out here.

Test: 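Partners whose loss is lethal together with topoisomerase I blockade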 (primary screen)
Cell system: MDA-MB-231 cells, a human breast cancer line
Reagents: single siRNA against human genes, 20 nM siRNA (0.8 pmol per well)
Timing: 120 h (drug added 48 h after transfection, read 72 h later)
Treatment: camptothecin 20 nM (about EC30) for 72 h; vehicle 0.1% DMSO in parallel plates
Read-out: 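Cell viability by ATP luminescence (CellTiter-Glo) as % of non-targeting siRNA wells, and the log2 ratio of viability without drug over viability with camptothecin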
Direction: log2 vehicle/camptothecin viability: higher = stronger sensitisation to camptothecin
Call rule: 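Active genes have an RSA gene-level p-value below 0.001, computed from the ratios of their separate siRNAs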

RAB4A [SID164384350] — log2 vehicle/camptothecin viability = 0.192; Outcome = inactive
RAB4A [SID164384354] — log2 vehicle/camptothecin viability = -0.337; Outcome = inactive
RAB4A [SID164384356] — log2 vehicle/camptothecin viability = -0.432; Outcome = inactive
RAB4A [SID164384357] — log2 vehicle/camptothecin viability = -0.125; Outcome = inactive
PHRF1 [SID164495604] — log2 vehicle/camptothecin viability = -0.0463; Outcome = inactive
PHRF1 [SID164495605] — log2 vehicle/camptothecin viability = -0.0594; Outcome = inactive
PHRF1 [SID164495607] — log2 vehicle/camptothecin viability = 0.0481; Outcome = inactive
PHRF1 [SID164495609] — log2 vehicle/camptothecin viability = 0.056; Outcome = inactive
MED4 [SID164464964] — log2 vehicle/camptothecin viability = -0.193; Outcome = inactive
MED4 [SID164464966] — log2 vehicle/camptothecin viability = 0.167; Outcome = inactive
MED4 [SID164464967] — log2 vehicle/camptothecin viability = -0.197; Outcome = inactive
RNPEPL1 [SID164492913] — log2 vehicle/camptothecin viability = -0.17; Outcome = inactive
RNPEPL1 [SID164492914] — log2 vehicle/camptothecin viability = -0.182; Outcome = inactive
RNPEPL1 [SID164492916] — log2 vehicle/camptothecin viability = -0.533; Outcome = inactive
RNPEPL1 [SID164492917] — log2 vehicle/camptothecin viability = -0.0513; Outcome = inactive
CYB5R4 [SID164472346] — log2 vehicle/camptothecin viability = -0.44; Outcome = inactive
CYB5R4 [SID164472348] — log2 vehicle/camptothecin viability = -0.296; Outcome = inactive
CYB5R4 [SID164472349] — log2 vehicle/camptothecin viability = -0.22; Outcome = inactive
CYB5R4 [SID164472350] — log2 vehicle/camptothecin viability = -0.267; Outcome = inactive
BMP5 [SID164355424] — log2 vehicle/camptothecin viability = -0.023; Outcome = inactive
BMP5 [SID164355426] — log2 vehicle/camptothecin viability = 0.893; Outcome = inactive
BMP5 [SID164355427] — log2 vehicle/camptothecin viability = -0.338; Outcome = inactive
BMP5 [SID164355428] — log2 vehicle/camptothecin viability = -0.175; Outcome = inactive

Copied from above (5 entries):
CYB5R4 [SID164472346] — log2 vehicle/camptothecin viability = -0.44; Outcome = inactive
CYB5R4 [SID164472348] — log2 vehicle/camptothecin viability = -0.296; Outcome = inactive
CYB5R4 [SID164472349] — log2 vehicle/camptothecin viability = -0.22; Outcome = inactive
CYB5R4 [SID164472350] — log2 vehicle/camptothecin viability = -0.267; Outcome = inactive
BMP5 [SID164355424] — log2 vehicle/camptothecin viability = -0.023; Outcome = inactive

The results go on:
ARTN [SID164401348] — log2 vehicle/camptothecin viability = 0.308; Outcome = active
ARTN [SID164401350] — log2 vehicle/camptothecin viability = 0.429; Outcome = active
ARTN [SID164401351] — log2 vehicle/camptothecin viability = 0.483; Outcome = active
SSBP1 [SID164389865] — log2 vehicle/camptothecin viability = -0.301; Outcome = inactive
SSBP1 [SID164389869] — log2 vehicle/camptothecin viability = -0.0233; Outcome = inactive
SSBP1 [SID164389871] — log2 vehicle/camptothecin viability = -0.312; Outcome = inactive
SSBP1 [SID164389872] — log2 vehicle/camptothecin viability = -0.0422; Outcome = inactive
IGF2 [SID164370989] — log2 vehicle/camptothecin viability = -0.245; Outcome = inactive
IGF2 [SID164370993] — log2 vehicle/camptothecin viability = 0.486; Outcome = inactive
IGF2 [SID164370994] — log2 vehicle/camptothecin viability = -0.276; Outcome = inactive
PCSK4 [SID164480329] — log2 vehicle/camptothecin viability = 0.0231; Outcome = inactive
PCSK4 [SID164480330] — log2 vehicle/camptothecin viability = -0.156; Outcome = inactive
PCSK4 [SID164480333] — log2 vehicle/camptothecin viability = -0.347; Outcome = inactive
PCSK4 [SID164480335] — log2 vehicle/camptothecin viability = -0.102; Outcome = inactive
CSNK1A1 [SID164360103] — log2 vehicle/camptothecin viability = -0.249; Outcome = inactive
CSNK1A1 [SID164360104] — log2 vehicle/camptothecin viability = -0.0957; Outcome = inactive
CSNK1A1 [SID164360107] — log2 vehicle/camptothecin viability = -0.278; Outcome = inactive
CSNK1A1 [SID164360108] — log2 vehicle/camptothecin viability = 0.303; Outcome = inactive
FBXO3 [SID164459606] — log2 vehicle/camptothecin viability = 0.0294; Outcome = inactive
FBXO3 [SID164459607] — log2 vehicle/camptothecin viability = 0.128; Outcome = inactive
FBXO3 [SID164459608] — log2 vehicle/camptothecin viability = -0.284; Outcome = inactive
FBXO3 [SID164459609] — log2 vehicle/camptothecin viability = 0.0778; Outcome = inactive
